Measured values: PMC8184781, “A histone H3K4me1-specific binding protein is required for siRNA accumulation and DNA methylation at a subset of loci targeted by RNA-directed DNA methylation” (Nature Communications, 2021)
These are yes or no findings as the source states them, for the method shown. In cells and extracts the contact can be indirect. Some results given as binding are weak or reduced against the parent protein; the word gives no strength. Tags and fused reporters may be left off the sequences shown. Values belong to the binder of their own block, whether it stands above or below them.

Assays:
[1] = target: T1, RDM15 fused to a luciferase half (split luciferase construct) (Arabidopsis thaliana) (UniProt Q8GUP3); test: split reporter; split luciferase complementation in N. benthamiana leaves, 2 days after infiltration; performed once
T1 sequence: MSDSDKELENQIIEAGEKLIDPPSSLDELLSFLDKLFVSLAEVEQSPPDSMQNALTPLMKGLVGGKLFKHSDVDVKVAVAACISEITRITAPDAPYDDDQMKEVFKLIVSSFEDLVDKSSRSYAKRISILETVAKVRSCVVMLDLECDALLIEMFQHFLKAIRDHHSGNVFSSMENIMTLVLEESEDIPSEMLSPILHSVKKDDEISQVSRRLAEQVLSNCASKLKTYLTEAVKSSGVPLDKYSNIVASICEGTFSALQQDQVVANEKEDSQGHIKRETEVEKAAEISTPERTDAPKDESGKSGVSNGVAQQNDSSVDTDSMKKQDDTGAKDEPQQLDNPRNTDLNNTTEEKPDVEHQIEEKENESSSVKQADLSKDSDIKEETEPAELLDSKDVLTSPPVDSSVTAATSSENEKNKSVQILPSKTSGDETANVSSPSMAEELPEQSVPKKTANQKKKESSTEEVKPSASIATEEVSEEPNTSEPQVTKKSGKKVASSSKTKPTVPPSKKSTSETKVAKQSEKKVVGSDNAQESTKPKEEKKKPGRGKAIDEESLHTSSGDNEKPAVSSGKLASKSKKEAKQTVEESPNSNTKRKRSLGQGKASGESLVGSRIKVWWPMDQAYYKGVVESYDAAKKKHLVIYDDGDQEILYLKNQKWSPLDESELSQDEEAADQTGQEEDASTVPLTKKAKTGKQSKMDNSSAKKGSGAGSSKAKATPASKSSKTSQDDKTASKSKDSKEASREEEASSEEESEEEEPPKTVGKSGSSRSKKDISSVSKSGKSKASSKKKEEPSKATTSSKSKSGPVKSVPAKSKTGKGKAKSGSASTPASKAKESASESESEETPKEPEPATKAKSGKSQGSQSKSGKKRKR

[2] = target: T2, RDM15-cYFP / RDM15-nYFP (BiFC constructs) (Arabidopsis thaliana) (UniProt Q8GUP3); test: split reporter; BiFC (split YFP) in N. benthamiana leaves, 2 d after infiltration, Leica TCS-SP8; performed once
T2 sequence: T1 sequence

binding [1]: binds
B1: NRPE3B fused to a luciferase half (split luciferase construct) (protein, UniProt Q39212 1-319)
chain: MDGVTYQRFPTVKIRELKDDYAKFELRETDVSMANALRRVMISEVPTMAIHLVKIEVNSSVLNDEFIAQRLSLIPLTSERAMSMRFCQDCEDCNGDEHCEFCSVEFPLSAKCVTDQTLDVTSRDLYSADPTVTPVDFTSNSSTSDSSEHKGIIIAKLRRGQELKLKALARKGIGKDHAKWSPAATVTYMYEPDIIINEEMMNTLTDEEKIDLIESSPTKVFGIDPVTGQVVVVDPEAYTYDEEVIKKAEAMGKPGLIEIHPKHDSFVFTVESTGALKASQLVLNAIDILKQKLDAIRLSDNTVEADDQFGELGAHMREG

binding [2]: binds
B2: NRPE3B-nYFP / NRPE3B-cYFP (BiFC constructs) (protein, UniProt Q39212 1-319)
chain: B1 chain
